Results reported in article doi:10.1101/2023.01.22.525045.
Results are given in words; binding and its absence hold for the method and conditions named. In cells and extracts the contact can be indirect. Some entries that bind do so weakly or less than the wild type.

By UniProt entry, the sequences of proteins in these tests, tags left out. Where a name states a change or a piece, a line headed by the entry shows the natural chain unless it says otherwise. Chains listed by the source or under a name are the forms on record and can include a tag or linker.
UniProt P05787: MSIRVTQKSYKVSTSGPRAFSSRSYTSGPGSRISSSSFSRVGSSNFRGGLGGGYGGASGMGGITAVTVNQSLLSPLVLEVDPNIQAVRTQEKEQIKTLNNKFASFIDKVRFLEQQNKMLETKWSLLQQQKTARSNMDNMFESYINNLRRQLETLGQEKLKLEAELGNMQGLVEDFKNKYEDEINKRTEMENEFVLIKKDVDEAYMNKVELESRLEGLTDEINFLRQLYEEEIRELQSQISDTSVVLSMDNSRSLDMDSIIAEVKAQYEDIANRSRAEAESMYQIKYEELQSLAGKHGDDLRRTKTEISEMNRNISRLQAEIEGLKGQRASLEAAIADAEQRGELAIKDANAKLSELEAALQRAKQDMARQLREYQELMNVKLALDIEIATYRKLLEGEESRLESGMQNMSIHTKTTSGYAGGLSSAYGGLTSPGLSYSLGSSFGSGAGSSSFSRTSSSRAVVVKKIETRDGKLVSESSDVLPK
S34-37D K8-GFP (P05787, form named): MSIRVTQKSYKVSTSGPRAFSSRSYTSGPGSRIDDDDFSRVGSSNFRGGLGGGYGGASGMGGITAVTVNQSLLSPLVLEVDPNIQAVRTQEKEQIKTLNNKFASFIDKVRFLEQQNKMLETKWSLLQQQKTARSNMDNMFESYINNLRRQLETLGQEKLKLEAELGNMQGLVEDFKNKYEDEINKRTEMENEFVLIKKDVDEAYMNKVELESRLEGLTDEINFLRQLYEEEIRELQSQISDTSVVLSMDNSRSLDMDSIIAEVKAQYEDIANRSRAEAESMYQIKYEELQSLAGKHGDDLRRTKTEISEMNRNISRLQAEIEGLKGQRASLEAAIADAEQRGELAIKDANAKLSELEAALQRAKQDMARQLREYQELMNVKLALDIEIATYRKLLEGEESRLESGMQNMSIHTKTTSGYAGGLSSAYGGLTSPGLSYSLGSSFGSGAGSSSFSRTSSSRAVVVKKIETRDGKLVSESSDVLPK
S34-37A K8-GFP (P05787, form named): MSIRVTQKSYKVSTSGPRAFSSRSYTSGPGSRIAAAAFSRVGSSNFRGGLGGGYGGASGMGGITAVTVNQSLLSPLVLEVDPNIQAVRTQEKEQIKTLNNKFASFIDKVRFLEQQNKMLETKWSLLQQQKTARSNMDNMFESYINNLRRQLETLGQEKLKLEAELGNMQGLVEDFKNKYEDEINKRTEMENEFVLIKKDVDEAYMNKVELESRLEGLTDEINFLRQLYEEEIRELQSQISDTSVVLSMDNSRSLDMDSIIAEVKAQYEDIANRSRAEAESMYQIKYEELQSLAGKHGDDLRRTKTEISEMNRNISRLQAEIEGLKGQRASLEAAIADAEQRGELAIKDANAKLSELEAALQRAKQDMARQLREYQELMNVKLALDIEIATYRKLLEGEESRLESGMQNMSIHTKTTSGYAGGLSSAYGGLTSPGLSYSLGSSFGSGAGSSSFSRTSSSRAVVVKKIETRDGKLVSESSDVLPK
UniProt Q96GD4: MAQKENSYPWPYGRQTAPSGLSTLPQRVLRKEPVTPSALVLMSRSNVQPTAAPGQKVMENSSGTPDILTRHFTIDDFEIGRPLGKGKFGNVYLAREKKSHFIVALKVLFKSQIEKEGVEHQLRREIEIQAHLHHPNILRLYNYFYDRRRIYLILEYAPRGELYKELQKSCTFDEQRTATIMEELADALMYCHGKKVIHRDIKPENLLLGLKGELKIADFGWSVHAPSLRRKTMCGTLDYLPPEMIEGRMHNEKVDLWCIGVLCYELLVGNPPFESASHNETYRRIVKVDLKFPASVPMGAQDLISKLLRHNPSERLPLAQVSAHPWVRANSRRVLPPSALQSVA

What was measured:
Experiment in all cases: co-IP
WT K8-GFP = WT K8-GFP (UniProt P05787)
S34-37D K8-GFP = S34-37D K8-GFP (UniProt P05787)
S34-37A K8-GFP = S34-37A K8-GFP (UniProt P05787)

Measured: binding

Aurora B (from UniProt Q96GD4 1-344) (enzyme)
binds: all assays above
